Data set [1] is described as follows: Salt concentration / salt removal test: 10 wt % NaCl solution mixed with amine at room temperature, supernatant Cl by ion chromatography. The format is physicochemical. To be noted: for Concentration/Precipition: liquid concentrated phase or solid precipitate; for Salt Removal Rate 1: first test.
The nature of data set [2]: Same salt removal test repeated with the amine phase recovered from the heated supernatant. The format is physicochemical. The note with it: recovered amine phase reused.
Setting [3] is: S/F (solvent/feed volume ratio) 4.0, room temperature.

Several values for one entry are separate records, joined by “and”; a condition that tells them apart may be missing. Identical values can stand only once.

Regarding `C1CCN(CCCN2CCCC2)C1` [chemical formula (1-2)], the “salt concentration of the concentrate separated in the lower phase” value (“salt concentration … in the lower phase” for short) was found to be 21.0 wt % in data set [1] (S/F 4.0) and 25.9 wt % in data set [1] (S/F 6.0). Moreover, the results for the “volume of the lower phase, of the volume of the input aqueous phase” value in data set [1] (S/F 4.0) and in data set [1] (S/F 6.0) were 52% and 54%, respectively. Further, the Concentration/Precipition result in data set [1] (S/F 4.0) is given as “Concentration”; in data set [1] (S/F 6.0), “Concentration”; in data set [1] (S/F 7.0) it was “Precipition”; in data set [1] (S/F 10.0) it was “Precipition”. Also, the “Salt Concentration of Concentrate” value in data set [1] (Table 1, S/F 4.0) is on record as 21.0%; in data set [1] (Table 1, S/F 6.0), 25.9%. Moreover, the “Salt Removal Rate 1” value in data set [1] (S/F 6.0, room temperature) is on record as 98.7%; in data set [1] (S/F 7.0, room temperature) it was 99.0%; in data set [1] (S/F 10.0, room temperature), 99.0%; in data set [1] (setting [3]), 97%. The “Salt Removal Rate 2” value in data set [2] (S/F 4.0) is 97.5%; in data set [2] (S/F 6.0) it was 98.5%; in data set [2] (S/F 7.0) it was 99.2%; in data set [2] (S/F 10.0), 99.0%. Also, the results for the “concentration of the lower phase being separated” value in data set [2] (S/F 4.0) and in data set [2] (S/F 6.0) were 21.2 wt % and 25.9 wt %, respectively.
As for `CCOC(=O)N1CCN(CCCN2CCN(C(=O)OCC)CC2)CC1` [chemical formula (2-1)], the “salt concentration … in the lower phase” value turned out to be 22.0 wt % in data set [1] (S/F 4.0) and 25.5 wt % in data set [1] (S/F 6.0). The Concentration/Precipition result is recorded as “Concentration” in data set [1] (S/F 4.0), “Concentration” in data set [1] (S/F 6.0), “Precipition” in data set [1] (S/F 7.0) and “Precipition” in data set [1] (S/F 10.0). Moreover, the “volume of the lower phase, of the volume of the input aqueous phase” value in data set [1] (S/F 6.0) is listed as 50%. Moreover, the “Salt Concentration of Concentrate” value in data set [1] (Table 1, S/F 4.0) was found to be 21.0%; in data set [1] (Table 1, S/F 6.0), 25.9%. Besides, the “Salt Removal Rate 1” value is 98.3% and 98.7% in data set [1] (S/F 6.0, room temperature); 98.3% and 99.0% in data set [1] (S/F 7.0, room temperature); 99.0% in data set [1] (S/F 10.0, room temperature); 96.5% and 97.0% in data set [1] (setting [3]). Besides, the “Salt Removal Rate 2” value was 97.5% in data set [2] (S/F 4.0); 99.0% and 98.5% in data set [2] (S/F 6.0); 99.2% in data set [2] (S/F 7.0); 99.0% in data set [2] (S/F 10.0). For the same molecule, the results for the “concentration of the lower phase being separated” value in data set [2] (S/F 4.0) and in data set [2] (S/F 6.0) were 21.2 wt % and 25.3 wt %, respectively.
Take `CC(C)NC(C)C` [diisopropylamine, reference compound]: the entries for the “salt concentration … in the lower phase” value in data set [1] (S/F 4.0), in data set [1] (S/F 10.0) and in data set [1] (S/F 15.0) were 15.0 wt %, 24.0 wt % and 25.9 wt %, respectively. The Concentration/Precipition entry in data set [1] (S/F 4.0), in data set [1] (S/F 10.0) and in data set [1] (S/F 15.0) was “Concentration” throughout. The “Salt Concentration of Concentrate” value in data set [1] (Table 1, S/F 4.0) turned out to be 15.0%; in data set [1] (Table 1, S/F 10.0) it was 24.0%; in data set [1] (Table 1, S/F 15.0), 25.9%.

Source of the values: patent publication US20240308878A1, “WATER TREATMENT SYSTEM, WATER TREATMENT METHOD, AND AMINE SOLUTION” (KABUSHIKI KAISHA TOSHIBA, priority 2023, published 2024).
